Data as given in article PMC5947560.
Results are given in words; binding and its absence hold for the method and conditions named. In cells and extracts the contact can be indirect. Some entries that bind do so weakly or less than the wild type.

Biological target: T1, Arl1 (S. cerevisiae) (UniProt P38116)
T1 sequence: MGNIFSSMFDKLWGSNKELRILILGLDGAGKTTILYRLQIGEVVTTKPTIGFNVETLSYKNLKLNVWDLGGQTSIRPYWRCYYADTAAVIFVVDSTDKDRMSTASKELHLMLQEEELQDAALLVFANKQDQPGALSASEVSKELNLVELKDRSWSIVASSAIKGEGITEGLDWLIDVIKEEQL
Assay: co-IP; co-immunoprecipitation, data not shown; no details given

- binding: binds
B1: Lam5 (protein, UniProt P43560 1-674)
chain: MSDVDNWEPVSDNEDSTDSVKQLGPPFEHASNNDNAGDTEAESLQEVPLNTETNDVRKNLVVITNQSAADEHPTEIKHDQSRTSSTSSFFSGMISSFKSNVPSPVSRSTTPTSPVSQPSIISHRREPSMGSKRRSSRRISNATIAEIGSPLQQVEKPDEVKTRLTPSQMKEDNYDHRRFVEERYMDTPYHYASEQRNKDFHETFKSVPKDDRLLDDFNCGLNRELLYQGKLYITETHLCFNSNVLGWIAKVLIAFEDVTFMEKTSAAGLFPSAISIETKMGKTLFNGFISRDAAFGLMKEVWSRTLLQKDMASENINTKAEKSGNGKEIDDAINSIDEENNDKDANDNDTNENDDENISTNETTPNSTSSSPDKEKEKAYKLRADSSYQYDGPIYHHSTSFPAEPMANNEFVLKELPFDCAPGILFEIMFNSEQNEFLLDFLRGQEGSQITTIPNFTSIDGSSMTLKREYSYEKALHFPAGPKSTTCYVAEVIKRKDPDTYYEVISSIRTPNVPSGGSFSTKTRYLIRWNDEITCLLRVSFWVEWTGSSWIKGMVENGCKNGQLEAAQLMERILSKFIKNNVEECQITISKEEEEQDDKEVKNKLKEVDLEQPREAVVTAPAIAEQQGLKVTMETWLFLYLIVVVLLLFNLFYIRSIAVSLHQLVKLQLVELKL
